# In PubChem BioAssay (Tox21):
# Chains of the proteins cited; added tags and fusions are not shown.
# UniProt P14416, whole entry, looked up: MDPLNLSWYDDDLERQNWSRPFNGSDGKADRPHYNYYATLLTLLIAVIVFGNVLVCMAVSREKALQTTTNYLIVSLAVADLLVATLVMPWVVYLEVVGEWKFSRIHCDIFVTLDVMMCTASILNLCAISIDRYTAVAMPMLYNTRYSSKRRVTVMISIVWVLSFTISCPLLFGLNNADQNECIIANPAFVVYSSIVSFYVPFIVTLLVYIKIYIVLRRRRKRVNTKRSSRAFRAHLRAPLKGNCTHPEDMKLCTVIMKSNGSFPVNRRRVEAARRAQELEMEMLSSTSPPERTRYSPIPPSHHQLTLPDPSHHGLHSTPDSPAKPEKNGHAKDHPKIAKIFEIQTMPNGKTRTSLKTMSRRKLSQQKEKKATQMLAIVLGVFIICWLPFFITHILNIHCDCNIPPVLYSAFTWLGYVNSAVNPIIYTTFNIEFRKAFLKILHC
# Values joined by “and” are separate entries in the source; they are usually repeats but may differ in a detail not shown here. Equal values may be shown once. The shares of active, inactive and inconclusive entries below differ from those in the screen. For some of these results: Potencies of inconclusive entries are doubtful fits and often do not repeat. Active and inactive are the calls of the source. Unless noted, calls come from the whole dose curve.
# Assays:
# [1] = cAMP Responsive Elements (CRE) small molecule antagonists, cell-based qHTS assay (AID 1963591; active = well fitted inhibition curve with a large enough effect in the signal ratio in the repeat runs, not every such curve was filed as active; inconclusive = weak or mixed curves, or effect the other way; the % refers to the signal ratio; note: potency is the fitted concentration of half-maximal effect); details: CRE-bla HEK293T, beta-lactamase FRET ratio
# Method in brief: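 CRE-bla HEK293T cells were plated 18 h at 37 °C/5% CO2, pinned with compound in DMSO, then stimulated with NKH477 at 0.25 uM final for 3 h. LiveBLAzer B/G FRET substrate was added and plates incubated 2 h at room temperature.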
# [2] = target: Beta-2 adrenergic receptor (Homo sapiens) (UniProt P07550); test: Adrenergic beta2 receptor (ADRB2) small molecule agonists, cell-based qHTS assay (AID 1963593); details: CHO-ADRB2 cells, cAMP HTRF, 30 min; note: potency is the fitted concentration of half-maximal effect;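 for activation: CHO cells stably overexpressing human ADRB2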
# Method in brief: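 CHO cells stably over-expressing ADRB2 were plated overnight at 37C, then dosed with compounds plus a stimulation mix containing 100uM IBMX and 25uM Ro-20-1724 for 0.5hr at room temperature. cAMP was measured by HTRF competition, 1hr.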
# [3] = target: Beta-2 adrenergic receptor (Homo sapiens) (UniProt P07550); test: Adrenergic beta2 receptor (ADRB2) small molecule antagonists, cell-based qHTS assay (AID 1963592); details: CHO-ADRB2 cells, isoproterenol-stimulated cAMP HTRF ratio, 0.5 h; activity change, negative = inhibition: at 92.4 µM (top of the series) unless noted; note: nearly all actives have a fitted effect of over 50% in size; note: potency is the fitted concentration of half-maximal effect
# Method in brief: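 Cells (CHO, stable ADRB2 overexpression) incubated 18-20hr at 37C; compounds added from DMSO; agonist mix (1nM isoproterenol, 100uM IBMX, 25uM Ro-20-1724) added; 0.5hr RT; d2-cAMP and anti-cAMP-cryptate added; 1hr RT; 665/615 nm read.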
# [4] = target: D(2) dopamine receptor (Homo sapiens) (UniProt P14416); test: Dopamine D2 receptor (DRD2) small molecule antagonists, cell-based qHTS assay (AID 1963595; active = well fitted inhibition curve with a large enough effect in the signal ratio in the repeat runs, with a control signal flat; inconclusive = weak or mixed curves, or effect the other way; the % refers to the signal ratio); details: HEK293-DRD2 cAMP HTRF antagonist mode; activity change, negative = inhibition: at 92.4 µM (top of the series) unless noted
# Method in brief: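 Cells were plated and grown for 24 h at 37 °C. Ro20-1724 (0.1 mM final) went in first, then compound for 10 min. NKH477 (200 nM) with quinpirole (12 nM) followed for 30 min at RT, then HTRF detection reagents for 1 h.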
# [5] = target: D(2) dopamine receptor (Homo sapiens) (UniProt P14416); test: Dopamine D2 receptor (DRD2) small molecule agonists, cell-based qHTS assay (AID 1963594); details: HEK293-DRD2 cAMP HTRF, agonist mode, 30 min; activation: at 92.4 µM (top of the series) unless noted; note: nearly all actives have a fitted effect of over 35% in size
# Method in brief: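 cAMP accumulation in DRD2-HEK293 cells measured by HTRF after 1 h detection; compounds added 10 min before NKH477 (200nM […]) forskolin-analogue stimulation, 30 min at room temperature, with Ro20-1724 present at 0.1 mM final.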
# [6] = activity change, negative = inhibition: at 92.4 µM (top of the series) unless noted
# [7] = activation: at 92.4 µM (top of the series) unless noted
# % is set by controls: 0 for no effect and ±100 for the full control effect.
smiles,measurement,setting,value
CC(C)(O)C(=O)c1ccccc1,Potency,[1]; [6],inactive
same,Potency,[2]; [7],"inconclusive: 0.611 µM [inhibitor, single point]"
CCO[Si](C)(OCC)OCC,Potency,[1]; [6],inactive
same,Potency,[3],inactive
same,Potency,[2]; [7],inactive
O=C(Nc1cccc(C2=NCCN2)c1)Nc1cccc(C2=NCCN2)c1,"activity change, negative = inhibition",[1]; [6],inactive: -6.62% [at 18.9 µM]
same,"activity change, negative = inhibition",[3],inconclusive: -24.8% [at 19 µM]
NS(=O)(=O)O,"activity change, negative = inhibition",[1]; [6],inconclusive: -17.3%
same,"activity change, negative = inhibition",[1]; at 92.4 µM (top of the series),inactive: -1.2% and inactive: 1.28% and inactive: 2.11%
same,activation,[2]; [7],inconclusive: 19.8% and inconclusive: -3.34% and inconclusive: -38.9%
same,activation,[2]; at 92.4 µM (top of the series),inactive: -11.5%
O=C(Nc1ccccc1)Nc1ccccc1,"activity change, negative = inhibition",[1]; [6],inconclusive: 5.12%
same,Potency,[3],active: 68.9 µM
same,Potency,[2]; [7],inconclusive: 68.9 µM [inhibitor]
OCCN1CCOCC1,Potency,[1]; [6],inactive
same,activation,[2]; [7],inconclusive: -35.1%
O=C(O)CCS,Potency,[1]; [6],inactive
same,Potency,[2]; [7],inactive
CO[Si](C)(OC)c1ccccc1,Potency,[1]; [6],"inconclusive: 27.3 µM [activator, single point]"
same,Potency,[3],inactive
same,Potency,[2]; [7],inactive
CCCCCCCC/C=C\CCCCCCCCO,Potency,[1]; [6],inactive
same,Potency,[3],active: 54.4 µM
same,Potency,[2]; [7],"inconclusive: 34.3 µM [inhibitor, partial curve]"
O=C(C1CCCCC1)N1CC(=O)N2CCc3ccccc3C2C1 (stereo not given),Potency,[1]; [6],"inconclusive: 19.3 µM [fluorescent, full curve, poor fit] and inconclusive: 50.8 µM [fluorescent, partial curve]"
same,"activity change, negative = inhibition",[1]; [6],inconclusive: -0.224% [at 42.4 µM]
same,Potency,[2]; [7],"inconclusive: 68.5 µM [inhibitor, partial curve, poor fit] and inconclusive: 11.9 µM [inhibitor]"
same,activation,[2]; [7],inconclusive: 11.7%
same,"activity change, negative = inhibition",[4],inconclusive: 22.1%
COc1ccc([C@@H]2CC(=O)c3c(O)cc(O[C@@H]4O[C@H](CO[C@@H]5O[C@@H](C)[C@H](O)[C@@H](O)[C@H]5O)[C@@H](O)[C@H](O)[C@H]4O)cc3O2)cc1OC,"activity change, negative = inhibition",[1]; [6],inconclusive: 0.762%
same,"activity change, negative = inhibition",[1]; at 92.4 µM (top of the series),inactive: 8.95%
same,Potency,[3],inactive
same,activation,[2]; [7],inconclusive: 15.7%
same,activation,[2]; at 92.4 µM (top of the series),inactive: -20.5%
Cc1nc([N+](=O)[O-])cn1-c1ccc([N+](=O)[O-])cc1,Potency,[1]; [6],inactive
same,Potency,[3],inactive
same,Potency,[2]; [7],inactive
COC(=O)[C@H]1[C@H]2C[C@@H]3c4[nH]c5cc(OC)ccc5c4CCN3C[C@H]2C[C@@H](OC(=O)COc2ccc(OC)cc2)[C@@H]1OC,"activity change, negative = inhibition",[1]; [6],inconclusive: 19.7% [at 42.4 µM]
same,Potency,[3],"inconclusive: 16.8 µM [inhibitor, full curve]"
same,activation,[2]; [7],inconclusive: -84.4% [at 42.5 µM]
same,activation,[5],inconclusive: 16.1% [at 42.5 µM]
O=C(Cl)c1ccc([N+](=O)[O-])cc1,Potency,[1]; [6],inactive
same,Potency,[3],inactive
same,activation,[2]; [7],inconclusive: -48.9%
same,Potency,[5],inactive
CCOC(=O)C1OC1c1ccccc1 (stereo not given),Potency,[1]; [6],"inconclusive: 32 µM [activator, partial curve]"
same,"activity change, negative = inhibition",[1]; [6],inconclusive: 26.9%
same,Potency,[2]; [7],inactive
CC(C)(C)c1cc(Cc2cc(C(C)(C)C)c(O)c(C(C)(C)C)c2)cc(C(C)(C)C)c1O,"activity change, negative = inhibition",[1]; [6],inconclusive: 1.03%
same,"activity change, negative = inhibition",[1]; at 92.4 µM (top of the series),inactive: -2.59%
same,activation,[2]; [7],inconclusive: 11.8%
COCc1c(C(C)C)nc(C(C)C)c(/C=C/[C@@H](O)C[C@@H](O)CC(=O)O)c1-c1ccc(F)cc1,Potency,[1]; [6],"inconclusive: 26.6 µM [fluorescent, partial curve, poor fit]"
same,"activity change, negative = inhibition",[1]; [6],inconclusive: -10.3% [at 42.4 µM]
same,"activity change, negative = inhibition",[3],inconclusive: -35.4% [at 42.5 µM]
same,Potency,[2]; [7],"inactive and inconclusive: 605 nM [inhibitor, single point]"
CCc1nccnc1C,Potency,[1]; [6],inactive
same,Potency,[2]; [7],"inconclusive: 0.611 µM [inhibitor, single point]"
CCOC(=O)CC(=O)c1ccccc1,"activity change, negative = inhibition",[1]; [6],inconclusive: 25.5%
same,Potency,[3],inactive
same,Potency,[2]; [7],inactive
O=C(O)c1ccccc1Cl,"activity change, negative = inhibition",[1]; [6],inconclusive: 1.65%
same,Potency,[3],inactive
same,activation,[2]; [7],inconclusive: 5.9%
Oc1cccc2cc3cccc(O)c3c(O)c12,"activity change, negative = inhibition",[1]; [6],inconclusive: 0.743%
same,Potency,[3],inactive
same,Potency,[2]; [7],inconclusive: 27.4 µM [inhibitor]
Cn1cnc2ncnc(N)c21,Potency,[1]; [6],inactive
same,Potency,[2]; [7],"inconclusive: 21.6 µM [inhibitor, partial curve, poor fit]"
Cc1c(N=C=O)cccc1N=C=O,Potency,[1]; [6],inactive
same,Potency,[2]; [7],inconclusive: 2.78 µM [inhibitor]

# Quoted at random: 3 records from the list, in no set order.
smiles,measurement,setting,value
O=C(O)c1ccccc1Cl,activation,[2]; [7],inconclusive: 5.9%
Cc1nc([N+](=O)[O-])cn1-c1ccc([N+](=O)[O-])cc1,Potency,[3],inactive
Oc1cccc2cc3cccc(O)c3c(O)c12,"activity change, negative = inhibition",[1]; [6],inconclusive: 0.743%
